Consider 13 compounds from the supplement of paper PMC4604168 (melanoma cell lines).

Some of the results follow. Many values rest on one well or one pass, so single values are uncertain.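 The apoptosis fraction was the count of cleaved-PARP antibody-stained nuclei relative to all DNA-stained nuclei, imaged in 1,536-well plates. Screening doses were set so most cells survived, and baseline and induced cleaved-PARP levels vary greatly across cell lines.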

Common to all, as to assay: cleaved PARP positive nuclei fraction relative to DMSO control; melanoma cells; higher = more apoptosis
Holding throughout (details): library dose: low library concentration; 72 h

Assay [1] has as its system WM115.
The test system of assay [2] is WM1716.
Assay [3] deals with WM1745.
For assay [4], the system named is WM3526.
Assay [5] has as its system WM3619.
Assay [6] relates to WM451Lu.

With `COc1cc(Nc2ncc(F)c(Nc3ccc4c(n3)NC(=O)C(C)(C)O4)n2)cc(OC)c1OC` [Tamatinib] + COc1ccc(COc2ccc(Cc3cnc(N)nc3N)cc2OC)cc1 [GW2580] (first compound 0.4 µM, partner dose 1 µM), the “cleaved PARP positive nuclei fraction” value in assay [1] came out at 84.9%; in assay [2], 45.4%; in assay [3], 154%; in assay [4] it was 81.4%; in assay [5], 85.6%; in assay [6], 58.1%.

As to `Cn1nnc2c(C(N)=O)ncn2c1=O` [temozolomide] + Cn1cncc1[C@@](N)(c1ccc(Cl)cc1)c1ccc2c(c1)c(-c1cccc(Cl)c1)cc(=O)n2C [tipifarnib] (first compound 2 µM, partner dose 0.01 µM), the “cleaved PARP positive nuclei fraction” value came to 290% in assay [1]; 28.4% in assay [2]; 95.7% in assay [3]; 59.2% in assay [4]; 96.1% in assay [5]; 143% in assay [6].

On to `Clc1ccc(Nc2nnc(Cc3ccncc3)c3ccccc23)cc1` [vatalanib] + C[C@]1(c2nc3c(C(N)=O)cccc3[nH]2)CCCN1 [Veliparib] (first compound 2 µM, partner dose 1.4 µM), for which the “cleaved PARP positive nuclei fraction” value in assay [1] stood at 146%; in assay [2] it was 289%; in assay [3], 95.8%; in assay [4], 89.2%; in assay [5], 120%; in assay [6], 233%.

As for `Cc1ccc(NC(=O)c2cccc(N(C)C)c2)cc1NC(=O)c1ccc(O)cc1` + COc1ccc(COc2ccc(Cc3cnc(N)nc3N)cc2OC)cc1 [GW2580] (first compound 2 µM, partner dose 1 µM), the “cleaved PARP positive nuclei fraction” value in assay [1] is 38.1%; in assay [2] it was 79.5%; in assay [3], 117%; in assay [4] it was 34.5%; in assay [5] it was 68.1%; in assay [6], 57.2%.

`OCc1c[nH]c2ccccc12` [Indole-3-carbinol] + OCCn1cc(-c2cnc3nnn(Cc4ccc5ncccc5c4)c3n2)cn1 [PF04217903] (first compound 0.8 µM, partner dose 1 µM): the “cleaved PARP positive nuclei fraction” value was 160% in assay [1]; 162% in assay [2]; 101% in assay [3]; 25.8% in assay [4]; 146% in assay [5]; 16% in assay [6].

Take `C#Cc1cccc(Nc2ncnc3cc(OCCOC)c(OCCOC)cc23)c1` [erlotinib] + Cc1cc(N2CCOCC2)cc2[nH]c(-c3c(NC[C@@H](O)c4cccc(Cl)c4)cc[nH]c3=O)nc12 [BMS536924] (first compound 0.8 µM, partner dose 0.2 µM): the “cleaved PARP positive nuclei fraction” value in assay [1] is 87.7%; in assay [2] it was 46.6%; in assay [3] it was 166%; in assay [4], 85.3%; in assay [5], 84.6%; in assay [6] it was 200%.

With `Clc1ccc(Nc2nnc(Cc3ccncc3)c3ccccc23)cc1` [vatalanib] + Cn1cncc1[C@@](N)(c1ccc(Cl)cc1)c1ccc2c(c1)c(-c1cccc(Cl)c1)cc(=O)n2C [tipifarnib] (first compound 2 µM, partner dose 0.01 µM), the “cleaved PARP positive nuclei fraction” value is 136% in assay [1]; 54% in assay [2]; 107% in assay [3]; 73.1% in assay [4]; 106% in assay [5]; 118% in assay [6].

On to `C[C@@H]1CCN(C(=O)CC#N)C[C@@H]1N(C)c1ncnc2[nH]ccc12` + CCCCCCCCCCCC1=C(O)C(=O)C=C(O)C1=O [Embelin] (first compound 1 µM, partner dose 1.2 µM), for which the “cleaved PARP positive nuclei fraction” value in assay [1] amounted to 76.4%; in assay [2], 79.4%; in assay [3] it was 91.3%; in assay [4], 64%; in assay [5] it was 79.8%; in assay [6], 135%.

Take `C=CCNC1=C2C[C@@H](C)C[C@H](OC)[C@H](O)[C@@H](C)/C=C(\C)[C@H](OC(N)=O)[C@@H](OC)/C=C\C=C(/C)C(=O)NC(=CC1=O)C2=O` [Tanespimycin] + O=C(O)c1ccc(-c2c[nH]c3ncc(-c4ccccc4)cc23)cc1C1CCCC1 [GSK650394] (first compound 0.002 µM, partner dose 0.16 µM): the “cleaved PARP positive nuclei fraction” value in assay [1] was 73.5%; in assay [2], 157%; in assay [3], 109%; in assay [4] it was 62.7%; in assay [5], 147%; in assay [6], 44.4%.

In the case of `C[C@@H]1CCN(C(=O)CC#N)C[C@@H]1N(C)c1ncnc2[nH]ccc12` + CCN(CC)CCCCNc1ncc2cc(-c3cc(OC)cc(OC)c3)c(NC(=O)NC(C)(C)C)nc2n1 [PD173074] (first compound 1 µM, partner dose 0.1 µM), the “cleaved PARP positive nuclei fraction” value in assay [1] was determined as 89.5%; in assay [2], 28.5%; in assay [3], 101%; in assay [4], 63.1%; in assay [5] it was 75.7%; in assay [6], 219%.

For `Cc1cc(N2CCOCC2)cc2[nH]c(-c3c(NC[C@@H](O)c4cccc(Cl)c4)cc[nH]c3=O)nc12` + CC(C)CCN1c2nc(Nc3cc(F)c(O)c(F)c3)ncc2N(C)C(=O)C1C [BID1870] (first compound 0.2 µM, partner dose 0.2 µM), the “cleaved PARP positive nuclei fraction” value in assay [1] is 126%; in assay [2], 63%; in assay [3], 130%; in assay [4], 116%; in assay [5], 90.9%; in assay [6] it was 108%.

In the case of `C[C@@H]1CCN(C(=O)CC#N)C[C@@H]1N(C)c1ncnc2[nH]ccc12` + COc1cc(N2CCC(N3CCN(C)CC3)CC2)ccc1Nc1ncc(Cl)c(Nc2ccccc2S(=O)(=O)C(C)C)n1 [NVP-TAE684] (first compound 1 µM, partner dose 0.08 µM), the “cleaved PARP positive nuclei fraction” value in assay [1] was 51.5%; in assay [2], 117%; in assay [3] it was 134%; in assay [4], 76.9%; in assay [5] it was 94.8%; in assay [6], 33.5%.

Take `Cn1c(Nc2ccc(C(F)(F)F)cc2)nc2cc(Oc3ccnc(-c4ncc(C(F)(F)F)[nH]4)c3)ccc21` + Oc1nc(-c2ccc(C(F)(F)F)cc2)nc2c1CSCC2 [XAV939] (first compound 0.08 µM, partner dose 2 µM): the “cleaved PARP positive nuclei fraction” value in assay [1] is 740%; in assay [2], 427%; in assay [3] it was 187%; in assay [4], 145%; in assay [5] it was 121%; in assay [6], 305%.
